Measured values published in PubChem BioAssay AID330 (DTP/NCI, 2004).
The list shows only some results of the screen, not a fair sample: it gathers tests that were run many times, whatever their T/C, doses with no T/C, and many T/C values between a quarter and a half above the control. Further doses and runs are listed elsewhere. T/C is the treated group as % of the vehicle group. Some entries give survivors of the animals treated and no T/C: the source holds a T/C of zero for them, seemingly a mark for toxic or unscored doses. Some doses without a T/C left all or most animals alive at the check, yet need not have been tolerated: the source hardly ever lists a survival T/C far under the control, and the zero likely stands for such cases as well. Counts of survivors are from the toxicity check (mostly the fifth day) where no day follows; animals may have died later. Schedules are NCI's codes, taken here to give the interval after Q, in days (D) or hours (H), and the number of doses after X. Brackets with × stand for listed records that agree. Some entries were tested several times; the results are listed from low to high. Some structures stand for samples that the source files as different forms (salt, stereo form or complex); doses refer to the form tested. Where survival is the endpoint, this PubChem deposit counts one and a half times the control or more as active, and values a quarter to a half above the control carry no call in these data; other NCI protocols may use other cut-offs. Some T/C values are followed by the survivors on the day toxicity was checked, most often the fifth; where none is given, no animal had died by that day.

Test system: P388 leukemia ip, CD2F1 mice, survival T/C
Experiment: NCI In Vivo Anticancer Drug Screen. Data for tumor model P388 Leukemia (intraperitoneal) in CD2F1 (CDF1) mice
Conditions: T/C endpoint: median survival time, higher T/C = longer survival
[1] = dose: 200.0 mg/kg/injection, schedule: Q01DX009 (ip), vehicle: saline with Tween-80
[2] = dose: 25.0 micrograms/kg/injection, schedule: Q01DX009 (ip), vehicle: saline + alcohol
[3] = dose: 50.0 micrograms/kg/injection, schedule: Q01DX009 (ip), vehicle: saline + alcohol
[4] = dose: 100.0 mg/kg/injection, schedule: Q01DX009 (ip), vehicle: water
[5] = dose: 400.0 mg/kg/injection, schedule: Q01DX009 (ip), vehicle: saline with Tween-80
[6] = dose: 100.0 mg/kg/injection, schedule: Q01DX005 (ip), vehicle: saline with Tween-80
[7] = dose: 200.0 mg/kg/injection, schedule: Q01DX005 (ip), vehicle: saline with Tween-80
[8] = dose: 6.25 mg/kg/injection, schedule: Q01DX009 (ip), vehicle: saline with Tween-80
[9] = dose: 12.5 mg/kg/injection, schedule: Q01DX009 (ip), vehicle: saline with Tween-80
[10] = dose: 25.0 mg/kg/injection, schedule: Q01DX009 (ip), vehicle: saline with Tween-80
[11] = dose: 50.0 mg/kg/injection, schedule: Q01DX009 (ip), vehicle: saline with Tween-80
[12] = dose: 100.0 mg/kg/injection, schedule: Q01DX009 (ip), vehicle: saline with Tween-80
[13] = dose: 200.0 mg/kg/injection, schedule: Q01DX009 (ip), vehicle: Klucel (hydroxypropylcellulose) (HPC)
[14] = dose: 100.0 mg/kg/injection, schedule: Q01DX009 (ip), vehicle: Klucel (hydroxypropylcellulose) (HPC)

## COc1ccc2c(c1OC)C(=O)O[C@@H]2[C@H]1c2cc3c(cc2CCN1C)OCO3
dose: 160.0 mg/kg/injection, schedule: Q01DX009 (ip), vehicle: saline
  survivor count: 2 of 6

## CCOC(=O)c1cc(/C=C/c2ccc(Cl)cc2Cl)on1
dose: 240.0 mg/kg/injection, schedule: Q01DX005 (ip), vehicle: saline with Tween-80
  survivor count: 0 of 6

## CN(C)CCCN1CN(CCCN(C)C)CC(C)(C)C1
[1]
  survivor count: 5 of 6

## COc1cc2cc(c1Cl)N(C)C(=O)CC(OC(=O)CC(C)C)C1(C)OC1C(C)C1CC(O)(NC(=O)O1)C(OC)/C=C/C=C(C)C2 (configuration not stated)
dose: 3.1 micrograms/kg/injection, schedule: Q01DX009 (ip), vehicle: saline + alcohol
  T/C: 132 % of control
dose: 6.3 micrograms/kg/injection, schedule: Q01DX009 (ip), vehicle: saline + alcohol
  T/C: 140 % of control
dose: 12.5 micrograms/kg/injection, schedule: Q01DX009 (ip), vehicle: saline + alcohol
  T/C: 115, 120, 127, 142 % of control
[2]
  T/C: 129, 130, 158 % of control
  survivor count: 5 of 6
[3]
  T/C: 124, 133, 178 % of control
  survivor count: 3 of 6
dose: 100.0 micrograms/kg/injection, schedule: Q01DX009 (ip), vehicle: saline + alcohol
  survivor count: 1 of 6
dose: 200.0 micrograms/kg/injection, schedule: Q01DX009 (ip), vehicle: saline + alcohol
  survivor count: 1 of 6 (2×) and 3 of 6

## CCOC(=O)C(N)CSC (configuration not stated)
[4]
  survivor count: 6 of 6

## O=c1cc2cccccc-2o1
dose: 400.0 mg/kg/injection, schedule: Q01DX001 (ip), vehicle: Klucel (hydroxypropylcellulose) (HPC)
  survivor count: 2 of 6

## COc1cc2c(cc1O)CCCC(C)(C)C2=O
[5]
  survivor count: 6 of 6

## CNC(=O)Sc1ccc(C)c(N(C)C)c1
[6]
  T/C: 126 % of control
[7]
  T/C: 127 and 133 % of control [5 of 6 alive]
dose: 400.0 mg/kg/injection, schedule: Q01DX005 (ip), vehicle: saline with Tween-80
  survivor count: 0 of 6

## FC(F)(F)COP1OCCS1 (configuration not stated)
dose: 400.0 mg/kg/injection, schedule: Q04DX002 (ip), vehicle: saline with Tween-80
  survivor count: 2 of 5

## O=[N+]([O-])c1c(Cl)sc(Cl)c1[N+](=O)[O-]
[8]
  survivor count: 6 of 6
[9]
  survivor count: 3 of 6 and 6 of 6
[10]
  survivor count: 0 of 6
[11]
  survivor count: 0 of 6
[12]
  survivor count: 0 of 6
[1]
  survivor count: 0 of 6
[5]
  survivor count: 0 of 6

## CCCCCOP(=O)(N=[N+]=[N-])OCCCCC
dose: 3.12 mg/kg/injection, schedule: Q01DX009 (ip), vehicle: saline with Tween-80
  survivor count: 0 of 6
[8]
  survivor count: 0 of 6
[9]
  survivor count: 0 of 6
[10]
  survivor count: 0 of 6
[11]
  survivor count: 0 of 6
[12]
  survivor count: 0 of 6
[1]
  survivor count: 0 of 6

## N#C[C@H](OC1OC(COC2OC(CO)C(O)C(O)C2O)C(O)C(O)C1O)c1ccccc1 (some centres not stated)
dose: 200.0 mg/kg/injection, schedule: Q01DX009 (oral), vehicle: suspension in saline
  survivor count: 3 of 6 and 4 of 6
dose: 400.0 mg/kg/injection, schedule: Q01DX009 (oral), vehicle: saline
  survivor count: 2 of 6
dose: 400.0 mg/kg/injection, schedule: Q01DX009 (oral), vehicle: suspension in saline
  survivor count: 2 of 6
dose: 400.0 mg/kg/injection, schedule: Q01DX009 (oral), vehicle: water
  survivor count: 0 of 6
dose: 800.0 mg/kg/injection, schedule: Q01DX009 (oral), vehicle: suspension in saline
  survivor count: 0 of 6 and 1 of 6
dose: 800.0 mg/kg/injection, schedule: Q01DX009 (oral), vehicle: water
  survivor count: 0 of 6
dose: 1600.0 mg/kg/injection, schedule: Q01DX009 (oral), vehicle: suspension in saline
  survivor count: 0 of 6 and 2 of 6
dose: 1600.0 mg/kg/injection, schedule: Q01DX009 (oral), vehicle: water
  survivor count: 0 of 6
dose: 3200.0 mg/kg/injection, schedule: Q01DX009 (oral), vehicle: suspension in saline
  survivor count: 0 of 6
dose: 3200.0 mg/kg/injection, schedule: Q01DX009 (oral), vehicle: water
  survivor count: 0 of 6

## CCCCCCC(=O)/C=C/c1ccccc1OCOC
[13]
  T/C: 129 % of control

## Cc1c2c(cc3c1[nH]c1ccccc13)C(=O)c1ccccc1C2=O
[6]
  survivor count: 5 of 5

## CCOC(=O)c1nc2nc3cc(OC)c(OC)cc3cc2c(=O)[nH]1
dose: 25.0 mg/kg/injection, schedule: Q01DX005 (ip), vehicle: Klucel (hydroxypropylcellulose) (HPC)
  survivor count: 6 of 6
dose: 50.0 mg/kg/injection, schedule: Q01DX005 (ip), vehicle: Klucel (hydroxypropylcellulose) (HPC)
  survivor count: 6 of 6 (2×)
dose: 100.0 mg/kg/injection, schedule: Q01DX005 (ip), vehicle: Klucel (hydroxypropylcellulose) (HPC)
  survivor count: 6 of 6

## CCC(=O)NCC(=O)O
[9]
  survivor count: 6 of 6
[10]
  survivor count: 6 of 6

## CCS/C(C#N)=C(/OC)c1ccccc1Cl
[1]
  survivor count: 1 of 6

## CN(C)c1ccc2c(Cl)ccnc2c1
[6]
  survivor count: 0 of 6
[7]
  survivor count: 0 of 6

## O=NNc1ccc(S(=O)(=O)c2ccccc2)cn1
dose: 50.0 mg/kg/injection, schedule: Q01DX009 (ip), vehicle: sodium bicarbonate
  T/C: 147 % of control

## CC1(c2ccccc2)NC(=O)N(CC(=O)N(c2ccccc2)c2ccccc2)C1=O (configuration not stated)
dose: 60.0 mg/kg/injection, schedule: Q01DX005 (ip), vehicle: saline with Tween-80
  survivor count: 6 of 6
dose: 120.0 mg/kg/injection, schedule: Q01DX005 (ip), vehicle: saline with Tween-80
  survivor count: 6 of 6

## O=[N+]([O-])c1c(N2CCN(CCO)CC2)nc2ccccn12
dose: 50.0 mg/kg/injection, schedule: Q01DX009 (ip), vehicle: Klucel (hydroxypropylcellulose) (HPC)
  survivor count: 2 of 4
[14]
  survivor count: 0 of 6
[13]
  survivor count: 0 of 6

## CCOC(=O)[C]1([Sb]([CH3])[CH3])N=NC(C(=O)OC)=C1C(=O)OC (configuration not stated)
dose: 200.0 mg/kg/injection, schedule: Q04DX003 (ip), vehicle: saline with Tween-80
  T/C: 147 % of control

## [Cl][Pt+2][Cl].[NH-]C1CCCC1.[NH-]C1CCCC1
dose: 20.0 mg/kg/injection, schedule: Q01DX009 (ip), vehicle: Klucel (hydroxypropylcellulose) (HPC)
  T/C: 143 % of control
dose: 160.0 mg/kg/injection, schedule: Q01DX009 (ip), vehicle: Klucel (hydroxypropylcellulose) (HPC)
  T/C: 144 % of control

## COc1ccc2cc3cc[n+](C)cc3cc2c1OC
dose: 50.0 mg/kg/injection, schedule: Q01DX009 (ip), vehicle: water
  survivor count: 3 of 6
[4]
  survivor count: 0 of 6
dose: 200.0 mg/kg/injection, schedule: Q01DX009 (ip), vehicle: water
  survivor count: 0 of 6

## C/C=C(/C)C(=O)OC1c2c(C)coc2CC23OC2CCC(C)C13C (configuration not stated)
[14]
  survivor count: 6 of 6

## C[N+]1(C)N=C([O-])N(Cc2ccccc2)C1=O
dose: 400.0 mg/kg/injection, schedule: Q04DX003 (ip), vehicle: saline
  survivor count: 1 of 6

## O=C(O)C(O)C(O)C1[O][Sb][O]C1C(=O)O (configuration not stated)
dose: 25.0 mg/kg/injection, schedule: Q01DX005 (ip), vehicle: saline
  T/C: 126 % of control
dose: 50.0 mg/kg/injection, schedule: Q01DX005 (ip), vehicle: saline
  T/C: 135 and 139 % of control
dose: 100.0 mg/kg/injection, schedule: Q01DX005 (ip), vehicle: saline
  survivor count: 0 of 5 and 2 of 5
[7]
  T/C: 129 % of control
dose: 200.0 mg/kg/injection, schedule: Q01DX005 (ip), vehicle: saline
  survivor count: 0 of 5
